The list shows a part of the results. Single values of this set are uncertain.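 Tm was set to 64 °C where no melting was found, and many curves are irregular.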

Sequences of proteins named here, by UniProt entry; tags and fusion partners are left off. A change or cut given only in a name is not applied to a line headed by its entry.
UniProt P07737, whole entry: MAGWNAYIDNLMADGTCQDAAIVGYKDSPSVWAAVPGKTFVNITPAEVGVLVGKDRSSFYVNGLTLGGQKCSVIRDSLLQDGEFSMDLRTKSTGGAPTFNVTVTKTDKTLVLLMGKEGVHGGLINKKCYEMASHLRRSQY
UniProt P13929, whole entry: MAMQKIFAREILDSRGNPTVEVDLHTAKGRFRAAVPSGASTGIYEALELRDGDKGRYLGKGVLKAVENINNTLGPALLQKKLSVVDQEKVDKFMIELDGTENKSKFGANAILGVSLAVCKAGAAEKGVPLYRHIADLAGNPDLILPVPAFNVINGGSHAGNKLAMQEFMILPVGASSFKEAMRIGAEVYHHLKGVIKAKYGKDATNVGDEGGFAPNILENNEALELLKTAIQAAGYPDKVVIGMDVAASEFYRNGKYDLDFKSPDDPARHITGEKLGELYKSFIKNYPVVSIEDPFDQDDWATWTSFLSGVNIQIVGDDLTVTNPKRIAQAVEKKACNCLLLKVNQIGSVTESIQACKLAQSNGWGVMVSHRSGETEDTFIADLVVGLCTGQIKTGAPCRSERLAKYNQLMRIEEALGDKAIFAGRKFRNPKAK
UniProt P11474: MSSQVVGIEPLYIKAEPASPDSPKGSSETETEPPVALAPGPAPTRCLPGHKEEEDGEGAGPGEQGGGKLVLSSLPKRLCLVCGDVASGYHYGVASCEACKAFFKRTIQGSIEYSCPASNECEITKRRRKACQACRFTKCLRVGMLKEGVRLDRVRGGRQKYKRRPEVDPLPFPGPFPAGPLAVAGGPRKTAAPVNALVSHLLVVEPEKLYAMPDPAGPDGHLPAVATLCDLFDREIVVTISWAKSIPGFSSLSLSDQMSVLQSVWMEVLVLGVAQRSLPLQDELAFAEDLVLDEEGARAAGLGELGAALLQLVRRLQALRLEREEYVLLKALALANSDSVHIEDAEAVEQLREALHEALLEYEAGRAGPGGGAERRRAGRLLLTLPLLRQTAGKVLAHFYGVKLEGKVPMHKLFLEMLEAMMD
UniProt P09038, whole entry: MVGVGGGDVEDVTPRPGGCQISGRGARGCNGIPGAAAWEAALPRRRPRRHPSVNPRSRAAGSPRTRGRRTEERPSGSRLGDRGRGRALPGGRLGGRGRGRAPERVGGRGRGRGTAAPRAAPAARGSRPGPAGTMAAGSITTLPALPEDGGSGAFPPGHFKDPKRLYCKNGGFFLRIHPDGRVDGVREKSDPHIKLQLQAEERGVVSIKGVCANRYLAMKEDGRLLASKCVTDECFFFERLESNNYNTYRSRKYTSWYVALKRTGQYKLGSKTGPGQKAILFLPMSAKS
UniProt P18669: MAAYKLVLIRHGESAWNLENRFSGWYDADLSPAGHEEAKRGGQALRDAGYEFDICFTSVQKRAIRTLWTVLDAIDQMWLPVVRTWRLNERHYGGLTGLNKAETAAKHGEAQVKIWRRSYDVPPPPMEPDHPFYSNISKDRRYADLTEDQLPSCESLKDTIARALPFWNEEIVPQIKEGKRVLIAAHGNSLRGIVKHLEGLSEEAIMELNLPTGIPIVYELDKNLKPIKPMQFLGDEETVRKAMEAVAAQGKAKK
UniProt P10114: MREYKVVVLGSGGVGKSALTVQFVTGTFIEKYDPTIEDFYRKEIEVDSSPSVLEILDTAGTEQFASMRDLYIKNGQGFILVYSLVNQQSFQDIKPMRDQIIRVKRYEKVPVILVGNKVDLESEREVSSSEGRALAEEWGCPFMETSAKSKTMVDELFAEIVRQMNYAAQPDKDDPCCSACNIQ
UniProt P15407: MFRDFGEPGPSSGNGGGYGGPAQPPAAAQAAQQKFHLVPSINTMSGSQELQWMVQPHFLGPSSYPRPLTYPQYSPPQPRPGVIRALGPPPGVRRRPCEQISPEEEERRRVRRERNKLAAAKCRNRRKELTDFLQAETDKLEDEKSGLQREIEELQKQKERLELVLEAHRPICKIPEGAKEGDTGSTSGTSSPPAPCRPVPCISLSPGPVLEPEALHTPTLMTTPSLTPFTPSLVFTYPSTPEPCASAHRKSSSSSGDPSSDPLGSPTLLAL
UniProt P13056: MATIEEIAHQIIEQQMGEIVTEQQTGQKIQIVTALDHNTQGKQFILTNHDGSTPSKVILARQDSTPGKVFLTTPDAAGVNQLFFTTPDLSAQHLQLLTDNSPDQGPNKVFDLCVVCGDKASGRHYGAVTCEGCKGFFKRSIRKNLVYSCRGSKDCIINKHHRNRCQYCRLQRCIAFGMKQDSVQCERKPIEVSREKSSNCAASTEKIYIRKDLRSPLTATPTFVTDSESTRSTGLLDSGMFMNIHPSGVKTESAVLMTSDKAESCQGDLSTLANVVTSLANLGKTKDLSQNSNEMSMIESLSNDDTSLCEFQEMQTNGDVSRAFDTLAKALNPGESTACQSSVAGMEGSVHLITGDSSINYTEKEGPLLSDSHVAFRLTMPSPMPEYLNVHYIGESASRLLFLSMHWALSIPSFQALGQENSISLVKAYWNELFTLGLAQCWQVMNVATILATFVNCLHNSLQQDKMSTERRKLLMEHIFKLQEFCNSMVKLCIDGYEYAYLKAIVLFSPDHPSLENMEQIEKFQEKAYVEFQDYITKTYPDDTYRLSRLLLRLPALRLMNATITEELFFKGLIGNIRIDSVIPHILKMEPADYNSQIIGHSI
UniProt P0C7P4: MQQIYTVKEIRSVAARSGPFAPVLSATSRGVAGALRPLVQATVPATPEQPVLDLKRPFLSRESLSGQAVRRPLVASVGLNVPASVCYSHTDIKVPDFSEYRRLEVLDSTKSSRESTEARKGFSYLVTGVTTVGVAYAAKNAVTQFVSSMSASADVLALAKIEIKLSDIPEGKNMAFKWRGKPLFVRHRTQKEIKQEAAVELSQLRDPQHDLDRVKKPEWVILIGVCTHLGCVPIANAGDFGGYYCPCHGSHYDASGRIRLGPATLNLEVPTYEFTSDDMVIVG
UniProt P08574: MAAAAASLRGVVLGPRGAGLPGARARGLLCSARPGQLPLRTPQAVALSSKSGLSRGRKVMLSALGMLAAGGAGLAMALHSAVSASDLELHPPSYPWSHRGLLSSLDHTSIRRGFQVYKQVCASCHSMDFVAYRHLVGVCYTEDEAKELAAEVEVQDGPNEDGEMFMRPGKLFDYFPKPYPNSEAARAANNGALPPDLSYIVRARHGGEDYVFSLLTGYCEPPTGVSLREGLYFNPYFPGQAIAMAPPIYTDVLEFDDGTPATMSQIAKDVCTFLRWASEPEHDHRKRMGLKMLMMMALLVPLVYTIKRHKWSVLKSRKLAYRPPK
UniProt P20042, whole entry: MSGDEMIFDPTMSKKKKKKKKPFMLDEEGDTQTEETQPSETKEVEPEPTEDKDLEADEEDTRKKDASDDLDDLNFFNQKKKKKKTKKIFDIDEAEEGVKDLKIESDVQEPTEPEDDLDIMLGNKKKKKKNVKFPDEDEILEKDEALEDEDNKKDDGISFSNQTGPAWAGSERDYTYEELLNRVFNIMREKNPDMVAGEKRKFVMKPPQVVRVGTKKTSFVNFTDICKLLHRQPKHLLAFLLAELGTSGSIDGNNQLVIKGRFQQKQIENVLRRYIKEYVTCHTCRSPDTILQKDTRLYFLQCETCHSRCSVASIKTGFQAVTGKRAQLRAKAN
UniProt P16455, whole entry: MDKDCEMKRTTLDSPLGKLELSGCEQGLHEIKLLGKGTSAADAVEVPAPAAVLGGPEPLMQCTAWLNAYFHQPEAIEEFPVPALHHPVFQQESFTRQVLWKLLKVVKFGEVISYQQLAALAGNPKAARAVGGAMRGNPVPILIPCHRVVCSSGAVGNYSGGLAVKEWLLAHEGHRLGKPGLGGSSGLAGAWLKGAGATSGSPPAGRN
UniProt P12429: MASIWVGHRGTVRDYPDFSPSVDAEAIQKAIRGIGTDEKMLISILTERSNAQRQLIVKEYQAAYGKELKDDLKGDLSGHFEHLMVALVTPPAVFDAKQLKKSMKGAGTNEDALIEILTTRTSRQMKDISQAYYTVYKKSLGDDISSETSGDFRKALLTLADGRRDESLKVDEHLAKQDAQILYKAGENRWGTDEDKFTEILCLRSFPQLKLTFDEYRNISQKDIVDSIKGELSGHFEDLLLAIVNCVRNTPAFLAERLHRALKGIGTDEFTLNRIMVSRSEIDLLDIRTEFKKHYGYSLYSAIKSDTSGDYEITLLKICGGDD
UniProt P14649: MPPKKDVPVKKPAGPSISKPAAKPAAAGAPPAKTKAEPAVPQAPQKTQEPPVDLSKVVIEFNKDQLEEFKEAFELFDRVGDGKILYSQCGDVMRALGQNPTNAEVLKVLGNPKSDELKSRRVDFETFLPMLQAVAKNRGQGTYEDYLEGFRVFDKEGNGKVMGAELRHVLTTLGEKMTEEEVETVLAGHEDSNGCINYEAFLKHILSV
UniProt P15056, whole entry: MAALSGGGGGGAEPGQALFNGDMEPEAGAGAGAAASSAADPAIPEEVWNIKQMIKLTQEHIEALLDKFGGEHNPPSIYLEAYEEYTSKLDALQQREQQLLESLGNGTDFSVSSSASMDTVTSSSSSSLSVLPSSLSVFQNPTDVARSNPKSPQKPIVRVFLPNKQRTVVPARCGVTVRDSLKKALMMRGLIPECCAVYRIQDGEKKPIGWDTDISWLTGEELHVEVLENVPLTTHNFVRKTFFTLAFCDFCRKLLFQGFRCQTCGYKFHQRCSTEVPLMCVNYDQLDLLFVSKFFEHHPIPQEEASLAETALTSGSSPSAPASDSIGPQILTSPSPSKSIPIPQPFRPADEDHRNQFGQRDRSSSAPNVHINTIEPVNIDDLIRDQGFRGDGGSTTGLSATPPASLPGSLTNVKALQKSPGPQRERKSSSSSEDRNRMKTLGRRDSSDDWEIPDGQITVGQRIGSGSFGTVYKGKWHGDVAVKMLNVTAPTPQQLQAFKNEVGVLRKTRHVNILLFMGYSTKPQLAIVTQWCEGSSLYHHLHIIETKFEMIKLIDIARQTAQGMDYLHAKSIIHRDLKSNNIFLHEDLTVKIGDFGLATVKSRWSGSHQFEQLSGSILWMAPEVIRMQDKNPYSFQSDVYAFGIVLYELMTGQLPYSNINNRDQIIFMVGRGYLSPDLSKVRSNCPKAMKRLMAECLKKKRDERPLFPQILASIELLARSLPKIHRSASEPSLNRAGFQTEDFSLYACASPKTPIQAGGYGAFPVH
UniProt P11586, whole entry: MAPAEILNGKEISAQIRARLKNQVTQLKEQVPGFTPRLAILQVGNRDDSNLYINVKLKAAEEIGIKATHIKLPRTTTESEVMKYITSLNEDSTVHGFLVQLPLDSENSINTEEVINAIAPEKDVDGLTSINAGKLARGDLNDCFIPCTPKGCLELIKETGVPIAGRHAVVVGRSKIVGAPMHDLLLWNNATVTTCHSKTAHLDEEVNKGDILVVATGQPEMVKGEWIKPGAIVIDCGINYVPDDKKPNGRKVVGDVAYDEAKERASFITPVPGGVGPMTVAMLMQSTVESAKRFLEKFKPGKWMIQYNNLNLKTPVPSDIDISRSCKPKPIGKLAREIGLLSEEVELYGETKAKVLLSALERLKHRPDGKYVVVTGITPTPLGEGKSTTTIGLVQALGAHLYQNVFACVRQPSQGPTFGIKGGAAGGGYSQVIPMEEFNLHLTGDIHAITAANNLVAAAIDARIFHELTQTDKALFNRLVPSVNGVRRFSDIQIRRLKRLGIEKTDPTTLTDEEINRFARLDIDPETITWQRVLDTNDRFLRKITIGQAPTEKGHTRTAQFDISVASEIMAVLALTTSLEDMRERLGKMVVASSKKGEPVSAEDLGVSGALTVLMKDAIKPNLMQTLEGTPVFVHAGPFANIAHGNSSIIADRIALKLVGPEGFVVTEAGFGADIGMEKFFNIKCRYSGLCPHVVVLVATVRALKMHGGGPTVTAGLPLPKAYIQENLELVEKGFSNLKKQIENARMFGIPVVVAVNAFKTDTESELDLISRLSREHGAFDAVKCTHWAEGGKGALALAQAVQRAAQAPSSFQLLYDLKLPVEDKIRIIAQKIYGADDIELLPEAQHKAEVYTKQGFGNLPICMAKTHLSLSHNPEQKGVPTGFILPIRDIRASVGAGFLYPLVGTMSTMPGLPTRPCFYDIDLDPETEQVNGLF
UniProt P07902: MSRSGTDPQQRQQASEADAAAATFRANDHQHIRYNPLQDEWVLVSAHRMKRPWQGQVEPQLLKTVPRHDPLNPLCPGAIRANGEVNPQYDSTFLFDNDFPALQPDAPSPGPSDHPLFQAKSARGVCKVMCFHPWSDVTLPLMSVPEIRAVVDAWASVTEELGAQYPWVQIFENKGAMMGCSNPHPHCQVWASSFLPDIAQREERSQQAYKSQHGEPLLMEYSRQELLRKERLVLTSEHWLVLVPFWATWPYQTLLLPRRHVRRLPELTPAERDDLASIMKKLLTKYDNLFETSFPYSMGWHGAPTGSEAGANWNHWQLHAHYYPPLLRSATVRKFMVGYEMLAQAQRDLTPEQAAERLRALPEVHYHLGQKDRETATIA

Compound in the first assay: CCc1cnccc1C(=O)Nc1cc2c(cc1F)NC(=O)CC2
Description: melting temperature shift (DMSO Tm minus MBE1-treated Tm) in cellular thermal proteome profiling; higher = less thermal stabilization by MBE1 (negative = stabilized by MBE1). The note with it: A375; MBE1 concentration: 100 nM.
As for COL4A2 (UniProt P08572), the melting temperature shift is -0.516 °C.
Turning to UniProt P07737, the melting temperature shift was -0.416 °C.
The same measure, in the same setting: with UniProt P07947 the figure was 1.04 °C.
The same measure, in the same setting: to PLCG1 (UniProt P19174) belongs -0.0894 °C.
The same measure, in the same setting: to UniProt P0DJJ0 belongs 0.555 °C; to ENO3 (UniProt P13929), -3.28 °C; to UniProt P13747, -0.436 °C.
With PAM (UniProt P19021), the melting temperature shift was -2.08 °C.
On the same count and under the same terms, to ESRRA (UniProt P11474) belongs -0.583 °C; to THBS1 (UniProt P07996), -0.997 °C; to FGF2 (UniProt P09038), -0.232 °C.
Regarding BPGM (UniProt P07738), the melting temperature shift was -1.81 °C.
For the target PGAM1 (UniProt P18669), the melting temperature shift was -0.935 °C.
On the same count and under the same terms, with UniProt P10114 the figure was -2.62 °C; with CTSB (UniProt P07858), -1.34 °C.
The same measure, in the same setting: to FOSL1 (UniProt P15407) belongs 0.0733 °C.
For the target UniProt P13056, the melting temperature shift stood at 1.83 °C.
On to UniProt P0C7P4, for which the melting temperature shift was -1.05 °C.
Still for that read-out and setting: to UniProt P15309 belongs 0.629 °C.
For the target CYC1 (UniProt P08574), the melting temperature shift was -1.51 °C.
Same read-out and setting: with IFNGR1 (UniProt P15260) the figure was -0.253 °C; with UniProt P18440, -1.09 °C; with EIF2S2 (UniProt P20042), -0.819 °C.
Still for that read-out and setting: with UniProt P16455 the figure was 1.58 °C; with POLA1 (UniProt P09884), -1.22 °C; with ANXA3 (UniProt P12429), -0.288 °C.
Regarding ATP2B1 (UniProt P20020), the melting temperature shift is -1.13 °C.
Consider SNRNP70 (UniProt P08621), for which the melting temperature shift came out at 0.407 °C.
As for MYL6B (UniProt P14649), the melting temperature shift was -3.2 °C.
Consider YBX3 (UniProt P16989), for which the melting temperature shift is -2.24 °C.
Take HK1 (UniProt P19367): the melting temperature shift is -0.282 °C.
The same measure, in the same setting: to EZR (UniProt P15311) belongs -0.248 °C.
Consider BRAF (UniProt P15056), for which the melting temperature shift is -0.395 °C.
In the case of MTHFD1 (UniProt P11586), the melting temperature shift was -0.582 °C.
Turning to PFKL (UniProt P17858), the melting temperature shift was -2.5 °C.
Turning to GALT (UniProt P07902), the melting temperature shift is -0.556 °C.
With ETFA (UniProt P13804), the melting temperature shift was -1.11 °C.

Staying with this assay, now noted: A375; MBE1 concentration: 1 uM.
As to COL4A2 (UniProt P08572), the melting temperature shift amounted to 0.391 °C.
On the same count and under the same terms, with UniProt P07737 the figure was -0.295 °C; with UniProt P07947, 1.1 °C; with PLCG1 (UniProt P19174), 0.179 °C.
On to UniProt P0DJJ0, for which the melting temperature shift is -2.28 °C.
Take ENO3 (UniProt P13929): the melting temperature shift is -3.09 °C.
The same measure, in the same setting: with UniProt P13747 the figure was 0.933 °C.
Still for that read-out and setting: with PAM (UniProt P19021) the figure was -0.235 °C; with ESRRA (UniProt P11474), 0.615 °C; with THBS1 (UniProt P07996), 0.324 °C.
FGF2 (UniProt P09038): the melting temperature shift is -0.104 °C.
For BPGM (UniProt P07738), the melting temperature shift was -0.937 °C.
In the case of PGAM1 (UniProt P18669), the melting temperature shift is -0.577 °C.
Same read-out and setting: with UniProt P10114 the figure was 0.552 °C; with CTSB (UniProt P07858), -0.195 °C; with FOSL1 (UniProt P15407), 0.446 °C.
The same measure, in the same setting: with UniProt P13056 the figure was 0.147 °C; with UniProt P0C7P4, -0.782 °C.
Regarding UniProt P15309, the melting temperature shift is -2.13 °C.
Still for that read-out and setting: with CYC1 (UniProt P08574) the figure was -1.42 °C.
On the same count and under the same terms, with IFNGR1 (UniProt P15260) the figure was -0.253 °C; with UniProt P18440, 0.047 °C; with EIF2S2 (UniProt P20042), -0.00671 °C.
For UniProt P16455, the melting temperature shift was found to be 0.641 °C.
On the same count and under the same terms, to POLA1 (UniProt P09884) belongs -1.37 °C; to ANXA3 (UniProt P12429), -0.557 °C; to ATP2B1 (UniProt P20020), 0.691 °C.
Turning to SNRNP70 (UniProt P08621), the melting temperature shift came out at 0.128 °C.
Still for that read-out and setting: with MYL6B (UniProt P14649) the figure was 1.45 °C; with YBX3 (UniProt P16989), -0.858 °C.
On the same count and under the same terms, with HK1 (UniProt P19367) the figure was 0.0997 °C.
On to EZR (UniProt P15311), for which the melting temperature shift is -0.116 °C.
The same measure, in the same setting: to BRAF (UniProt P15056) belongs -0.663 °C.
Same read-out and setting: to MTHFD1 (UniProt P11586) belongs 0.348 °C.
The same measure, in the same setting: to PFKL (UniProt P17858) belongs -2.03 °C; to GALT (UniProt P07902), 0.147 °C; to ETFA (UniProt P13804), 0.372 °C.
